The whole screen tested about 31,000 sequences, of which about 1,400 (4.5%) were called active.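 How the source made its calls: active means median seed-adjusted z-score above 1 or below -1; inactive means the rest.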 This is one part of the list.
experiment: Novel Modifiers of Survival Motor Neuron (SMN) Protein: Gene Identification via Genome-wide siRNA Screen; details: HEK293T SMN2-luciferase reporter, siRNA knockdown, 72 h; actives lie on both sides;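 further: luminescence tracks full-length SMN protein made from the SMN2 reporter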
Outline: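 Genome-wide siRNA screen (10418 genes, 3 siRNAs each, 1 pmol per well) by reverse transfection in HEK293T cells stably carrying an SMN2-luciferase reporter; luminescence after 72 hours, normalized to negative-control siRNA, log10-transformed, MAD-scored.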

Sequence | median seed-adjusted z-score
CGACAUAUGAGGCUUCAUATT against ZNF599 | inactive: 0.0896
CUGUGUGACUGGGUCCCAATT against ASGR2 | inactive: 0.0772
GAACUAAUCCUGUUCAACATT against ATXN3 | inactive: 0.04
AAGCAGUUGUUAAACCAGATT against TRIM54 | inactive: -0.219
GCUAGUCUUCUGGAAGUUATT against SRPRB | inactive: 0.000693
GCUGUUGUCUUUCACCCAATT against HMBS | inactive: 0.422
CAACAACAGAAUACUCAGATT against PHF10 | inactive: -0.199
GCUACAUCGAUUACACCAATT against ZNF462 | inactive: 0.0487
CCUUUACCACUGCUCGAAATT against ABCD2 | inactive: -0.102
AGUUCCUAUUGUUGCCCUUTT against RENBP | inactive: 0.587
AGAGGAUUCGUGCAGAGAATT against TNNT3 | inactive: -0.293
GAAAGAACACGUAAAUGUATT against GSPT2 | inactive: 0.846
CAGCUUCGAUAUAAGGAAATT against MYST2 | active: -1.46
GAGGUUUUCCAGACGGUGATT against EHD3 | inactive: 0.569
GGAAUAUCAUUGCAUACGATT against PTPRM | inactive: 0
GAUUUGACUUUAUCUACGATT against MYO10 | inactive: 0.8
CAACCAAGGUCAGUCUUAUTT against TFCP2L1 | inactive: -0.246
GAACCAAGAGAACCACGUATT against SLC25A6 | inactive: -0.928
GGCUGAAAGGGAUCGGUUATT against GYS2 | inactive: 0.0101
CCAUGUCUUGGGAACCGAUTT against PREP | inactive: 0.0883
CUGUGGUCUCUGUCUCUUATT against GPR75 | inactive: 0
GAAGCUCUACUCACAGUUUTT against GSTM2 | inactive: -0.464

Sequence | median seed-adjusted z-score
GCAGGGAUAUUAGGCGCAATT against G3BP2 | inactive: -0.336
CCAUAGAUACUUGUCGUGATT against RNF34 | inactive: -0.0857
ACACCACUGCCGAUCCAAATT against PER1 | inactive: 0.176
CCUGUUUGUUUAUAACGGATT against ITGA11 | inactive: 0.496
CCAUCUGCAAAAUCCCGGATT against FOSL1 | inactive: -0.431
CUCUCGUACUUUGAACCUATT against PANK3 | inactive: -0.185
AGAGGGCUCUGAACCAGUATT against LEPREL2 | inactive: 0.0022
CUGGGUUUGUGAAAGGAAATT against SLC7A2 | inactive: -0.245
GAAUGUGGACAGUUACUAATT against PHF6 | inactive: -0.268
GACUGGACCUCAGGAGUUATT against FOLR2 | inactive: -0.0835
CCACCGCAGGCAAACUUGUTT against SDS | inactive: 0.128
CCAGAGUUGUUGCUCGAUUTT against USP19 | inactive: 0.47
GGCUUUUAGCCUGAAGAAATT against PRDM5 | inactive: -0.463
CACCAUUCCCAAUGAUCUATT against PCBP3 | inactive: -0.0373
AGUUAUUGGAUGAAGCCUUTT against SDS | inactive: 0.128
GGACCUCCACUAUACGCAUTT against PCDHB9 | inactive: 0.516
GGGCGCAUCUAUACGUUCATT against MYO1D | inactive: -0.201
GGAAUGAUACCAUACCGAATT against NUP93 | active: 1.01
CCUCAACUCCUUGCACUCATT against ZMIZ2 | inactive: -0.27
GAUCAGUGUUUAGUUCGAUTT against ARID4A | inactive: 0.601
GCUCCUUUCAAGCACCUGATT against ADARB2 | inactive: -0.249
GGAAUUCCAAAUCUACGUATT against ACO1 | inactive: -0.197

Sequence | median seed-adjusted z-score
GGACAAUAUUAUGCUCGAATT against BMPR2 | inactive: 0
CAUCCAUUCGGGUUACGAATT against PER1 | inactive: 0.176
GCUCCGAAGUGGUGAUCAATT against CHRM1 | active: 1.1
CAGCAGAACGUGUACGAGATT against ZBTB7A | inactive: -0.344
CCAACGUGGUCCAACGUUUTT against NME3 | inactive: -0.0125
GAUGUAUUCGGAAAAUGGATT against ZDHHC7 | inactive: 0.0962
GCACGGAUUCUAACCAGGATT against CDH20 | inactive: -0.397
GACCUGUAAUCGGUAUGAATT against PLSCR3 | inactive: 0
GGCAUCGUAUGGUCAAGGATT against LAMA1 | inactive: 0.494
GCAGUGAUCUAGUCUCUUUTT against GLRX | inactive: -0.0561
CGCGUACUACGACACUGAATT against EIF3F | inactive: -0.0214
GAACGAUUCAGAAAGAGCATT against RAB33B | inactive: -0.758
CUUCAUUACUUAAGUCCAATT against FAM12A | inactive: 0.08
GCCGGAAGAUUAUGCGGAATT against PNPLA6 | inactive: 0.309
CCUCAAUCAGAAUCCAGAATT against STRADB | inactive: 0.21
GCAUGAGAAUCGACACCCATT against GABRR1 | inactive: 0.286
CGAUGUCUGUGGGUAUAAUTT against TFCP2 | inactive: 0.14
GGAGACAGAGGAUAGUGAATT against CAND2 | inactive: 0.0936
GCCUGAAUGGUACUAUACATT against GSTO2 | inactive: 0.142
CCACAUGACCAAGCAUACATT against ZNF142 | inactive: 0.111
GGAUCUGUUUGACAUGCGATT against SHC2 | inactive: -0.207
GGAAGGCAUUACUCACUUATT against SIRT3 | inactive: -0.341

Sequence | median seed-adjusted z-score
GCUUCAAGUUGUUCGGACATT against ZNF238 | inactive: -0.491
UAACCCUGCUCGGUCCUUUTT against AQP1 | inactive: 0.274
ACGUGUCGGUCAAAGCUGATT against DHH | inactive: 0
GACUUUGACAAAGCGAUUATT against SPTAN1 | inactive: -0.233
GCCGAGAUCUGACAACAAATT against HDHD1A | inactive: -0.937
GAACUUUGACCGAGCCGUATT against FGD3 | inactive: 0.245
GUCUCAUCGUUUCCACAGATT against RNF4 | inactive: 0.787
ACAUCGACUUGACUAUUGUTT against SDPR | inactive: -0.0738
CACCUACGUUUGCACAGAATT against MARK4 | inactive: -0.675
CCACCAGCGUGAUCAUUGUTT against GALNT6 | inactive: -0.287
CAGUCAAUGUUGUUCAGUUTT against GARS | inactive: 0.138
GAAUAUUCCUAUAGUGAUATT against MYOZ2 | inactive: 0.315
GCUGUAAAACUGAACUGCATT against GNE | inactive: 0.393
CUACCACCUUAGUCGUUUATT against GPR137B | inactive: -0.0897
AGAACCGAGUGGUCAGCUATT against CCL24 | inactive: 0
ACAAGCUUCACAAUAUUAATT against GATA3 | inactive: -0.197
UCAGGGACGUGGUAUCUGATT against LCN1 | inactive: 0.0607
AUCCAGUUGACGAAAGUAATT against PCDH11X | inactive: -0.203
CCCGAAGAACUGAACUUAATT against SULT2A1 | inactive: -0.123
AAUGCAUUGUGAACCCAUUTT against GNGT2 | inactive: -0.289
GGAUGACAGCGGUAAGGAUTT against HSP90AB1 | inactive: 0
GUAUAGAGAUGCAAGUUGATT against HTR2C | inactive: -0.115

Already shown: an excerpt of the list.
Sequence | median seed-adjusted z-score
ACAAGCUUCACAAUAUUAATT against GATA3 | inactive: -0.197
UCAGGGACGUGGUAUCUGATT against LCN1 | inactive: 0.0607
AUCCAGUUGACGAAAGUAATT against PCDH11X | inactive: -0.203
CCCGAAGAACUGAACUUAATT against SULT2A1 | inactive: -0.123
AAUGCAUUGUGAACCCAUUTT against GNGT2 | inactive: -0.289
GGAUGACAGCGGUAAGGAUTT against HSP90AB1 | inactive: 0

Following part

Sequence | median seed-adjusted z-score
GCAAUUAAAUCGGAUACUUTT against ANXA3 | inactive: -0.156
GCAUAACACCUAUCUCACUTT against PLCB3 | inactive: 0
AGCAGGCUUUGAUCAUUGATT against FKBP6 | active: -1.12
GCACGCUACUUUUACGCGATT against NTNG1 | inactive: 0.0823
CUGGUACAGUGGACGGAAATT against ATP9A | inactive: 0.499
GGAUGUAUGACAUCUGUAATT against STC1 | active: -1.36
GCAUUCUGCAUUCAAGGAATT against ADPGK | inactive: 0.373
GGAUAUAUCUUUGCGGUUUTT against TOPBP1 | inactive: 0.0888
CCUCAGAGGUUUGACCGAATT against B4GALT1 | inactive: 0
AGACCCUUCUUAUGACUCATT against FLI1 | inactive: 0.255
CCAAAUCAUUGAUCACAGUTT against GPR39 | inactive: 0.0998
GCUCAUUAGAUUAUCCAGATT against C3AR1 | inactive: -0.916
ACAAGUUCCGUAUCGUGAATT against SLC9A1 | inactive: 0
CACAGGUCUUGGUAACAAATT against PLEKHF1 | inactive: 0.055
GAUGACUUUUGAUAGUGAATT against ODC1 | active: -1.64
CUACAAUACCACAAACAAUTT against CRHR1 | inactive: -0.67
GUCUGGUCAUAACAACCAATT against KCNAB1 | inactive: 0.721
AGAUGAAUAUUACACGGAATT against COL5A1 | inactive: -0.00475
GCCUCUUGCAAUGCGGAAATT against GATA4 | inactive: -0.24
GAAGGACCAUAGACAGAGATT against GRK5 | inactive: -0.377

From PubChem BioAssay AID1347426 (Functional Genomics Laboratory (NCATS/FGL), 2020)
